A short description of this data set: Caco-2 permeability. Conditions: human. The protocol: Permeability was measured across Caco-2 cells cultured in a Millipore 96-well Caco-2 plate. For apical to basolateral (A→B) permeability, 10 μM compound was added to the apical (A) side and amount of permeation was determined on the basolateral (B) side; for basolateral to apical (B→A) permeability, the compound was added to the B side and the amount of permeation was determine on the A side. Time points were taken at 2 h.
Table S2. Permeability. Permeability was measured using Caco-2 cells after 1 and 2 hours incubation with compound. (A→B) is Apical to Basolateral; (B→A) is Basolateral to Apical. Data is expressed as permeability (10-6 cm s-1). dQ/dt is rate of permeation, C0 is initial concentration […]
Article Duration direction value replicate replicate mean recovery
In general terms: Passage across Caco-2 layers is used to estimate intestinal permeability.

In general, Papp B→A refers to how fast a substance crosses the layer from the basolateral side. Take `CC(C)NCC(O)COc1ccc(CC(N)=O)cc1` (stereo not shown) [Atenolol, atenolol, reference compound]: the Papp B→A at 2 h, 10 µM was determined as 0.3 ×10⁻⁶ cm/s.
